# Numbering of substitutions follows the chain as printed. No constants are given. Whether binding was seen depends on the method and setting. Some binding calls cover weakened binding; strength is not graded here.
# T1: DSR2 D135A (Bacillus subtilis) (UniProt P0DXN8)
# T1 sequence: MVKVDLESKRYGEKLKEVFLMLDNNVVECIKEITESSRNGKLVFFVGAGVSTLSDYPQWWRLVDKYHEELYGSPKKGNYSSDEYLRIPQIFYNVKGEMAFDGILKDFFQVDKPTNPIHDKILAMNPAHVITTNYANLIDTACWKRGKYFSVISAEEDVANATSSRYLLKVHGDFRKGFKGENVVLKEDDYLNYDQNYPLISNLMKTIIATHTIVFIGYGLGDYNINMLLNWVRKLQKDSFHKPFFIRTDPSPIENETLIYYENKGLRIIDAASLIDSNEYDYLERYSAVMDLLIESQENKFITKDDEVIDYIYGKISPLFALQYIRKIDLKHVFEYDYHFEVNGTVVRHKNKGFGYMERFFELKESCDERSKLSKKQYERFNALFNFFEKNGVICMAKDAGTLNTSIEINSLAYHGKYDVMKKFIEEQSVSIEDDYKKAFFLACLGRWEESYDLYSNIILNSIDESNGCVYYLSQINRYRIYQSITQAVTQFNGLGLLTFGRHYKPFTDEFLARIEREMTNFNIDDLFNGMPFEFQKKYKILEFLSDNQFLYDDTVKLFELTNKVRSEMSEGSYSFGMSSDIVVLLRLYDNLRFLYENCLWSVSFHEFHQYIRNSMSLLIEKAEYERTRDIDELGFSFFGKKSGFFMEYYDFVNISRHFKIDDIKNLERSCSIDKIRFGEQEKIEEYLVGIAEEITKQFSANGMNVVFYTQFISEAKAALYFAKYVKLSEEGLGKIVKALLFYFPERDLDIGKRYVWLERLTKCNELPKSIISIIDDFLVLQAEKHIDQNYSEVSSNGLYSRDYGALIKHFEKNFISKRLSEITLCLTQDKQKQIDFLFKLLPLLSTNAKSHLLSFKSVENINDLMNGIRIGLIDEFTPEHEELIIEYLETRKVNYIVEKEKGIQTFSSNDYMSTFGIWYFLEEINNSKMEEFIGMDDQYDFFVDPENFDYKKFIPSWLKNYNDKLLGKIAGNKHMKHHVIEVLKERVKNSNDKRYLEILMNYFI
# T2: DSR2 (Y71A, D188A) double mutant (Bacillus subtilis) (UniProt P0DXN8)
# T2 sequence: T1 sequence with Y71A, A135D, D188A
# B1: tail tube protein of phage SPR, wild type (natural protein)
# chain: MKTVIQDTADVYFKRKSDGKLVFTAEAQTASFSQAISEEKLRGGIGNKPLYILKSEKEINLTVKNAFFDLEWLAMTQGETIQEETKVKVFDREHGLIVDDTNKVTLKGKPVSDVTFYNKKGLTYKIAVSTDGTYTIPTAFAAAKDKLTAVYQIEKVGRRLAIKASKFSERYEVEYRTIAYNPDTEEVYSDIYIQFPNVSPSGEFEMSLENGNALAPEIKFEALADTDTDEMAVVIEASRDENTAAPVEDTTGSTQSSDLGGTTE
# notes: tail tube protein of Bacillus phage SPR; domains D1 and D2; GST removal with HRV 3C is told for the DSR2-tube complex; Alone it runs as monomeric and oligomeric species on SEC; Only D1 is seen in the maps; also called phage tail tube protein; source: E. coli BL21 Star (DE3); purified alone, or co-purified with DSR2 (Ni-NTA, glutathione resin, HRV 3C cleavage, HiTrap Q, Superdex 200); not shown: …
# Legend:
# [1] = molecular target: T1, DSR2 D135A (Bacillus subtilis); test: tandem affinity co-purification + SEC; His-DSR2 and GST-tube made in E. coli; for wild type the cells expressing each were mixed before lysis; Ni-NTA, then glutathione resin, GST removed with HRV 3C, HiTrap Q, Superdex 200 Increase; mutants purified by the same method
# [2] = molecular target: T2, DSR2 (Y71A, D188A) double mutant (Bacillus subtilis); test: as above
binder,measurement,setting,value
B1,binding,[1],binds
same,binding,[2],binds

# Reference: paper PMC10981675, “Structural basis for phage-mediated activation and repression of bacterial DSR2 anti-phage defense system” (Nature Communications, 2024)
